From publication doi:10.1101/2024.12.06.627180
These are yes or no findings as the source states them, for the method shown. In cells and extracts the contact can be indirect. Some results given as binding are weak or reduced against the parent protein; the word gives no strength.

Sequences of proteins named here, by UniProt entry; tags and fusion partners are left off. A change or cut given only in a name is not applied to a line headed by its entry. A line that says so, or that is headed by a name, gives the form on record, which may keep a tag or linker. Residues count along the entry.
UniProt Q99816: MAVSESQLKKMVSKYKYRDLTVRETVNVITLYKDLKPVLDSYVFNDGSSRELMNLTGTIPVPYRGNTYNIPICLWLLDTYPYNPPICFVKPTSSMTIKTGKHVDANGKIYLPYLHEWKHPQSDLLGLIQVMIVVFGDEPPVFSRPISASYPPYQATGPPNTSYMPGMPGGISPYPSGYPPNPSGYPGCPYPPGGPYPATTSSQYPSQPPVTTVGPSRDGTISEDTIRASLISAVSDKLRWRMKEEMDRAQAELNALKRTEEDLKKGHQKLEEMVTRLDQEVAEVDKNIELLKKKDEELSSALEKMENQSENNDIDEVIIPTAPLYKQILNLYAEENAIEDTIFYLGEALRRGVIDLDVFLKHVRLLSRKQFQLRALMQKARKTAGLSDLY
TSG101-UEV-GFP: residues 2-145 of Q99816
TSG101-UEV mutant M95A (Q99816, form named): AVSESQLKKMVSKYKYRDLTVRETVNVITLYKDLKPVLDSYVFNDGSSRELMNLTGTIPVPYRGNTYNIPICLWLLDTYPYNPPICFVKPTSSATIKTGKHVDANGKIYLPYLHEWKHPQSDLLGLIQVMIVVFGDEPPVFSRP
TSG101-UEV mutant N45A (Q99816, form named): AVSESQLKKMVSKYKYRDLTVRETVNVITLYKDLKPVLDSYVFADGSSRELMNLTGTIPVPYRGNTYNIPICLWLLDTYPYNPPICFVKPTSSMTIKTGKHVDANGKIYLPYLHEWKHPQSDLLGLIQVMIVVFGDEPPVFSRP
UniProt P60842: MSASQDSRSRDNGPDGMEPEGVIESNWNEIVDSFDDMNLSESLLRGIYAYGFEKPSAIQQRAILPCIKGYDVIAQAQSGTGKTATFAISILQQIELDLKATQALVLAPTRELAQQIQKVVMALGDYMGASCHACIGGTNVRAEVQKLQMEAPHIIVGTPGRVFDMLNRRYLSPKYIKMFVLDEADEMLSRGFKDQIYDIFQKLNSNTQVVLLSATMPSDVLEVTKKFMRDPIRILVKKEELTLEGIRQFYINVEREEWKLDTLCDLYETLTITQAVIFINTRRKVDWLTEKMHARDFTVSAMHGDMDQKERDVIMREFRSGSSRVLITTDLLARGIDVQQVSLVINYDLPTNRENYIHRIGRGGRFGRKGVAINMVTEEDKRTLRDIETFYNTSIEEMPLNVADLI
UniProt P06730: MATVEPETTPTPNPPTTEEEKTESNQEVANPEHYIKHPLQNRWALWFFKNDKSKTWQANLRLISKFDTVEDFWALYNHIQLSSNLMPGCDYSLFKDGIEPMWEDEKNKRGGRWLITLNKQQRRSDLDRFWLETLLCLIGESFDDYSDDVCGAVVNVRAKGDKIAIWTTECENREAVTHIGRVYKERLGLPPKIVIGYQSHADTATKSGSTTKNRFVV

Experiments:
[1] = target: TSG101 (human (endogenous in OVCAR8)) (UniProt Q99816); assay: proximity ligation
[2] = target: TSG101-GFP fusion protein (UniProt Q99816); assay: co-IP
[3] = target: TSG101-UEV mutant M95A (UniProt Q99816); assay: co-IP
[4] = target: TSG101-UEV mutant N45A (UniProt Q99816); assay: co-IP
[5] = target: TSG101-UEV-GFP (UniProt Q99816); assay: co-IP
[6] = target: eIF4A1-GFP fusion protein (UniProt P60842); assay: co-IP
[7] = target: eIF4E-GFP fusion protein (UniProt P06730); assay: co-IP

Substance	binding [1]	binding [2]	binding [3]	binding [4]	binding [5]	binding [6]	binding [7]
eukaryotic translation initiation factor 4E (eIF4E) (from UniProt P06730 1-217)	binds	binds	binds	no binding	binds		
eIF4A1 (from UniProt P60842 1-406)	binds	binds	binds	no binding	binds		
TSG101 (from UniProt Q99816 1-390)						binds	binds
